Source: article PMC4488268
These are yes or no findings as the source states them, for the method shown. For some of these results: A result given as binding can be weak or reduced; the word gives no strength. Sequences can lack the tags named with a protein. For some of these results: In cells and extracts the contact can be indirect. Each block holds one molecule with its values, some of them ahead of it.

Columns and labels:
[1] = target: T1, full-length ZBTB16 fused to the GAL4 DNA-binding domain (human) (UniProt Q05516); assay: two-hybrid; … GAL4 system (Clontech), yeast strain AH109; full-length ZBTB16 on the GAL4 DNA-binding domain (pGBKT7) as bait, NLRP7 constructs on the GAL4 activation domain (pGADT7); growth on SDhigh
T1 sequence: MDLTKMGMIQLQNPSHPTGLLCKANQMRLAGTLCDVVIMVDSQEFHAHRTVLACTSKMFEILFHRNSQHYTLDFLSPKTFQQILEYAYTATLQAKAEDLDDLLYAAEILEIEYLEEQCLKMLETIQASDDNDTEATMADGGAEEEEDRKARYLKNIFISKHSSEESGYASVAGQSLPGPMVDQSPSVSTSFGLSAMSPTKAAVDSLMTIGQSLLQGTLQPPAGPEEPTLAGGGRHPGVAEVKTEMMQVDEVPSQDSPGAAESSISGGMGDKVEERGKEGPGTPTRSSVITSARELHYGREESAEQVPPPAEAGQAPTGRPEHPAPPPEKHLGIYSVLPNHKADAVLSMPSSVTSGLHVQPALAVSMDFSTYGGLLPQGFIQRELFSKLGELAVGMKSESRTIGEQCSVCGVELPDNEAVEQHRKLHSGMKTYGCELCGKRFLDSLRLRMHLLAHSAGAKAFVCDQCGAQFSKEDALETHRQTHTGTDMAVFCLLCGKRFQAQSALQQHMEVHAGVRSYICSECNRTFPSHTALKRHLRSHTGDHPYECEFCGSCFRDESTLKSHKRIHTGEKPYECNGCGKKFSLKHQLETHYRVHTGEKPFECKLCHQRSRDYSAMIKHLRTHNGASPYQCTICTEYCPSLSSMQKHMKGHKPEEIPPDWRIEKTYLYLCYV

[2] = target: T2, full-length NLRP7, Flag-tagged (human) (UniProt Q8WX94); assay: co-IP; HEK293T cells transiently co-transfected with Flag- and Myc-tagged constructs; immunoprecipitation with an anti-Flag antibody, immunoblot; band density quantified
T2 sequence: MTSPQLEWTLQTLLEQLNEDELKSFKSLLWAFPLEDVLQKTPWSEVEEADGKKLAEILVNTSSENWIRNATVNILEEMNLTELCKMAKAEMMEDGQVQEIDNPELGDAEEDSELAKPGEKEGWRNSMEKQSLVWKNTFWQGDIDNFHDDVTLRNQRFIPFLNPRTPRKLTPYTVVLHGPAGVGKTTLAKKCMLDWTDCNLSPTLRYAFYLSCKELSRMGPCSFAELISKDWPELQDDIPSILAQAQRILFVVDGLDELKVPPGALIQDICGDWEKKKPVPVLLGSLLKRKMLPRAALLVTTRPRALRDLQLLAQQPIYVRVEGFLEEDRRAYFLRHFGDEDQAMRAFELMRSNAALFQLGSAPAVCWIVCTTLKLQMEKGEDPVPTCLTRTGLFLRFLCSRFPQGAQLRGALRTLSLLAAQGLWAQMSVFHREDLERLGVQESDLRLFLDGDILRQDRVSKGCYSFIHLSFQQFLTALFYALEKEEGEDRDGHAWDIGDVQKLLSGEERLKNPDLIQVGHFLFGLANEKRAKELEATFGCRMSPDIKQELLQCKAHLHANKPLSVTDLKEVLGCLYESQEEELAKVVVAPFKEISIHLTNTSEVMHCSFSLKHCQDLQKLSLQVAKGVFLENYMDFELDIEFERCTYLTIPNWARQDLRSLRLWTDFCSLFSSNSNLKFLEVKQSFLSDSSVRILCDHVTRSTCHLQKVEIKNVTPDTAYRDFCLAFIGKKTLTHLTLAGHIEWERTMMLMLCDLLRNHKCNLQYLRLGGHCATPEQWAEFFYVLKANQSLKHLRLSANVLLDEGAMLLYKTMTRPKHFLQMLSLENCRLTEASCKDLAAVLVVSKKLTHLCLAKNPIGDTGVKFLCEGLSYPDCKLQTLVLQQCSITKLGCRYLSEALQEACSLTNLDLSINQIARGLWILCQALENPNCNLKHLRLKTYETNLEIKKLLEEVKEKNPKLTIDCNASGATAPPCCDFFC

[3] = target: NLRP7 ΔNACHT, Flag-tagged (human); assay: as above
[4] = target: NLRP7 ΔPYD/LRR, Flag-tagged (human); assay: as above
[5] = target: NLRP7 LRR domain, Flag-tagged (human); assay: as above
[6] = target: NLRP7 ΔLRR, Flag-tagged (human); assay: as above
[7] = target: NLRP7 ΔNAD/LRR, Flag-tagged (human); assay: as above
[8] = target: NLRP7 ΔPYD, Flag-tagged (human); assay: as above
[9] = target: NLRP7 ΔPYD/NACHT, Flag-tagged (human); assay: as above

Molecule: NLRP7 NAD domain fused to the GAL4 activation domain (human) (domain or fragment)
binding [1]: binds

Molecule: ZBTB16 deletion construct del2 (RD2-3ZN), Myc-tagged (from UniProt Q05516) (domain or fragment)
binding [2]: no binding

Molecule: NLRP7 ΔLRR fused to the GAL4 activation domain (human) (domain or fragment)
binding [1]: binds

Molecule: NLRP7 ΔNAD/LRR fused to the GAL4 activation domain (human) (domain or fragment)
binding [1]: binds weakly

Molecule: NLRP7 ΔPYD/LRR fused to the GAL4 activation domain (human) (domain or fragment)
binding [1]: binds weakly

B2: ZBTB16 deletion construct del4 (aa 268–673), Myc-tagged (domain or fragment, UniProt Q05516 268-673)
chain: MGDKVEERGKEGPGTPTRSSVITSARELHYGREESAEQVPPPAEAGQAPTGRPEHPAPPPEKHLGIYSVLPNHKADAVLSMPSSVTSGLHVQPALAVSMDFSTYGGLLPQGFIQRELFSKLGELAVGMKSESRTIGEQCSVCGVELPDNEAVEQHRKLHSGMKTYGCELCGKRFLDSLRLRMHLLAHSAGAKAFVCDQCGAQFSKEDALETHRQTHTGTDMAVFCLLCGKRFQAQSALQQHMEVHAGVRSYICSECNRTFPSHTALKRHLRSHTGDHPYECEFCGSCFRDESTLKSHKRIHTGEKPYECNGCGKKFSLKHQLETHYRVHTGEKPFECKLCHQRSRDYSAMIKHLRTHNGASPYQCTICTEYCPSLSSMQKHMKGHKPEEIPPDWRIEKTYLYLCYV
binding [3]: binds weakly | binding [4]: binds

The remaining lines, values ahead:

binding [1]: no binding
Molecule: NLRP7 ΔPYD fused to the GAL4 activation domain (human) (domain or fragment)

binding [3]: binds weakly
B1: ZBTB16 deletion construct del1 (aa 1–164), Myc-tagged (domain or fragment, UniProt Q05516 1-164)
chain: MDLTKMGMIQLQNPSHPTGLLCKANQMRLAGTLCDVVIMVDSQEFHAHRTVLACTSKMFEILFHRNSQHYTLDFLSPKTFQQILEYAYTATLQAKAEDLDDLLYAAEILEIEYLEEQCLKMLETIQASDDNDTEATMADGGAEEEEDRKARYLKNIFISKHSSE

binding [5]: binds weakly | binding [6]: binds | binding [3]: no binding | binding [7]: binds weakly | binding [8]: binds | binding [4]: binds | binding [9]: no binding
B3: full-length ZBTB16, Myc-tagged (protein, UniProt Q05516 1-673)
chain: T1 sequence
